Patent US20110085986A1, “Diagnosis and treatment of epithelial cancers using labeled/conjugated progastrin peptides” (priority 2009, published 2011)
No constants are given. Whether binding was seen depends on the method and setting. Some entries that bind do so weakly or less than the wild type.

The chains behind the UniProt entries cited, without tags or fusion partners. Residues count along the entry.
UniProt Q07936, residues 2-339: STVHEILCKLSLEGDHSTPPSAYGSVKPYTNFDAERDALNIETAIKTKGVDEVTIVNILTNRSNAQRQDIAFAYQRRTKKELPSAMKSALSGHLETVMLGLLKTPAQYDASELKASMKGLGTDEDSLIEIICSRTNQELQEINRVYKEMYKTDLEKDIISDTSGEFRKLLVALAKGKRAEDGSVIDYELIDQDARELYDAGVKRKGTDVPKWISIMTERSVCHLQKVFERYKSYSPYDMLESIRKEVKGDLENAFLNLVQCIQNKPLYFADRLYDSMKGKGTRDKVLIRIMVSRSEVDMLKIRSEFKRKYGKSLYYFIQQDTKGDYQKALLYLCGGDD
UniProt P07355, residues 2-339: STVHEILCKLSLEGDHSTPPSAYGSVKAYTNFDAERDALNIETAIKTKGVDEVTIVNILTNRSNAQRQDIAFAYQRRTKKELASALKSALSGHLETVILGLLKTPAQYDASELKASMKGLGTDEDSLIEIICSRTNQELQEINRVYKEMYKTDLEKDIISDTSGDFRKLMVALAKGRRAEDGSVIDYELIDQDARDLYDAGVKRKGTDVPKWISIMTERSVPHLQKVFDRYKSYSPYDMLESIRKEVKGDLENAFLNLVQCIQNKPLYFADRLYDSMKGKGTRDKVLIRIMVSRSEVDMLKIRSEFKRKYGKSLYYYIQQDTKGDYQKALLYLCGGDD

T1: CCK2R on AR42J cells (UniProt P30553)
T1 sequence (looked up): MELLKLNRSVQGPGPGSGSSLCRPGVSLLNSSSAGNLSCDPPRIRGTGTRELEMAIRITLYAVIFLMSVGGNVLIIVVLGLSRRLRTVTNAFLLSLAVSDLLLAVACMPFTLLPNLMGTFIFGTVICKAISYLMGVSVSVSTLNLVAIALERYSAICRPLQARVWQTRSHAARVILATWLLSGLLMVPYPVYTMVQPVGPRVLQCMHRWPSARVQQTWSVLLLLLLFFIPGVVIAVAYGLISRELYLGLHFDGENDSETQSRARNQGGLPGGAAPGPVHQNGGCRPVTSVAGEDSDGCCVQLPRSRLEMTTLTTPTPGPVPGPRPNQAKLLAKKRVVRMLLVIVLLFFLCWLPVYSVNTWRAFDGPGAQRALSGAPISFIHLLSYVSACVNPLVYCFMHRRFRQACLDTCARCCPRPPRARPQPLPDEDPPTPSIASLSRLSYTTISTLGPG


What was measured:
CCK2R on AR42J cells = molecular target: T1, CCK2R on AR42J cells; assay: displacement of 125I-BH-CCK8 from CCK2R on AR42J cells (FIG. 2)
[1] = molecular target: Annexin A2 on AR42J cells and IEC-18 cells (UniProt Q07936); assay: immunofluorescence co-localization in cells (IEC)
[2] = molecular target: Annexin A2 in HEK-293 cells (UniProt P07355); assay: immunofluorescence co-localization in cells (HEK-293)
[3] = molecular target: Annexin A2 on AR42J cells and IEC-18 cells (UniProt Q07936); assay: displacement of 125I rhPG from ANX-II on AR42J cells (FIG. 2)
[4] = molecular target: Annexin A2 on AR42J cells and IEC-18 cells (UniProt Q07936); assay: confocal immunofluorescence co-localization on IEC-18 cells (FIG. 6A)
[5] = molecular target: Annexin A2 on AR42J cells and IEC-18 cells (UniProt Q07936); assay: PG binding/uptake imaging on IEC-18 cells after Anx A2 siRNA versus control siRNA (FIG. 6E)
[6] = molecular target: Annexin A2 on AR42J cells and IEC-18 cells (UniProt Q07936); assay: IEC-18 cells: co-localization, pull down with anti-PG-Ab and Western blot for ANXII, ANX-II siRNA

binding (CCK2R on AR42J cells)	binding [1]	binding [2]	binding [3]	binding [4]	binding [5]	binding [6]	Binder
binds							QGPWLEEEEEAYGWMDF (peptide, UniProt P01350 76-92, looked up, amidated on the carboxyl terminus) [gastrin G17 (amidated gastrin)]
	binds	binds	binds	binds	binds	binds	full length 80 amino acid recombinant progastrin (rhPG) (ligand) SWKPRSQQPDAPLGTGANRDLELPWLEQQGPASHHRRQLGPQGPPHLVADPSKKQGPWLEEEEEAYGWMDFGRRSAEDEN
